No constants are given. Whether binding was seen depends on the method and setting. In cells and extracts the contact can be indirect. Binding can be weak; no strength is given. For some assays here: Sequences can lack the tags named with a protein. Blank lines part the entries; values can stand above or below the molecule they belong to.
Columns and labels:
[1] = target: T1, endogenous zebrafish Capn3b (adult liver nucleoli) (zebrafish (endogenous in adult liver)) (UniProt E9QE31); experiment: co-IP; endogenous proteins, nucleolar protein extract of adult zebrafish liver incubated with protein A/G agarose beads conjugated with anti-Capn3b antibody
T1 sequence: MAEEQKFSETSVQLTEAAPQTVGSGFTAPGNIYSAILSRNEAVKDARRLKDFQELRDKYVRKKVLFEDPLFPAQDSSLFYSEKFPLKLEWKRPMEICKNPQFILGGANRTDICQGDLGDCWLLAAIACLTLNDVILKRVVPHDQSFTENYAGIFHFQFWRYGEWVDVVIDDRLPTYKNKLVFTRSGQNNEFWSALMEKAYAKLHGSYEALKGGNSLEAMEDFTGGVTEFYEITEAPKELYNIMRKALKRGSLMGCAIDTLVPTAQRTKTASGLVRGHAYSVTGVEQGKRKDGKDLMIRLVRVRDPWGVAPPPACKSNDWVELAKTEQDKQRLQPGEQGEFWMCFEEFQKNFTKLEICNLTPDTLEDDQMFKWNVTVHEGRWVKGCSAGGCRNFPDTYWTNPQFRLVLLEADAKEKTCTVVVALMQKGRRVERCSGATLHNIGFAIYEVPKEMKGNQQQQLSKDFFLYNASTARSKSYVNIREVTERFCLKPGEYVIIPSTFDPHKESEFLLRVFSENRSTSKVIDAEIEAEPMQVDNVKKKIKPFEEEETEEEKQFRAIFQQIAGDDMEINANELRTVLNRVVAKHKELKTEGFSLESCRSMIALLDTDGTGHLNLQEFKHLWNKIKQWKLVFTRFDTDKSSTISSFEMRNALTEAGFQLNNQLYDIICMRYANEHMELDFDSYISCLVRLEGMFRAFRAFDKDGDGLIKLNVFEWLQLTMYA

[2] = target: T2, Myc-Capn3b^C120S (zebrafish) (UniProt E9QE31); experiment: co-IP; 293T co-transfected with zebrafish def and Myc-Capn3a^C110S or Myc-Capn3b^C120S plasmids; blots with antibodies against zebrafish Def and the Myc-tag
T2 sequence: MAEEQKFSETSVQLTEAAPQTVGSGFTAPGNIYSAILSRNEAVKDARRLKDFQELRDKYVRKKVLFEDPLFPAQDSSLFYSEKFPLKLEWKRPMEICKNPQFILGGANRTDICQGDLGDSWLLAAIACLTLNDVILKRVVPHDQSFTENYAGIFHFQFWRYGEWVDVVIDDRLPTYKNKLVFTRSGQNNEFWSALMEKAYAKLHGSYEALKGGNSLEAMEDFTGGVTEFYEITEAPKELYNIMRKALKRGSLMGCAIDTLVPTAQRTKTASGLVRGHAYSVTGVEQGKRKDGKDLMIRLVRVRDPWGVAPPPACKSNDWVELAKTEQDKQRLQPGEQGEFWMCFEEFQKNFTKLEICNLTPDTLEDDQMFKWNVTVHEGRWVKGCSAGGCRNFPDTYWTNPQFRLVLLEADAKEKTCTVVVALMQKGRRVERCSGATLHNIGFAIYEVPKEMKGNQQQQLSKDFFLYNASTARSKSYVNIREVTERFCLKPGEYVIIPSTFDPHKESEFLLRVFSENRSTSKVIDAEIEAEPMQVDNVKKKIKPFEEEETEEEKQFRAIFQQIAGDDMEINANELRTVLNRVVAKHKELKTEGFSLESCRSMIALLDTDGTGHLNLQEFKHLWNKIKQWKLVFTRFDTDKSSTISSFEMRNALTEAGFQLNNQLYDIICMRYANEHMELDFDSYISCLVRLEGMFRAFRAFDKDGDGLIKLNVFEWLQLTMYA

[3] = target: Myc-Def_S87,92E (zebrafish); experiment: co-IP; 293T transfected with HA-capn3b^C120S plasmid alone or with Myc-def, Myc-def_S87,92A or Myc-def_S87,92E plasmid at ratios 1:1, 1:3 or 1:5; total protein 2 d after transfection; blots with anti-HA and anti-Myc (S2C Fig: 72 h, Myc-beads)
[4] = target: Myc-Def_S87,92A (zebrafish); experiment: as above
[5] = target: Myc-Def (zebrafish, wild type) (zebrafish); experiment: as above

- binding [1]: binds
Molecule: endogenous zebrafish Def (adult liver nucleoli)

- binding [2]: binds
Molecule: zebrafish Def (expressed in 293T cells)

- binding [3]: binds
- binding [4]: binds
- binding [5]: binds
B1: HA-Capn3b^C120S (enzyme, UniProt E9QE31 1-723)
chain: MAEEQKFSETSVQLTEAAPQTVGSGFTAPGNIYSAILSRNEAVKDARRLKDFQELRDKYVRKKVLFEDPLFPAQDSSLFYSEKFPLKLEWKRPMEICKNPQFILGGANRTDICQGDLGDSWLLAAIACLTLNDVILKRVVPHDQSFTENYAGIFHFQFWRYGEWVDVVIDDRLPTYKNKLVFTRSGQNNEFWSALMEKAYAKLHGSYEALKGGNSLEAMEDFTGGVTEFYEITEAPKELYNIMRKALKRGSLMGCAIDTLVPTAQRTKTASGLVRGHAYSVTGVEQGKRKDGKDLMIRLVRVRDPWGVAPPPACKSNDWVELAKTEQDKQRLQPGEQGEFWMCFEEFQKNFTKLEICNLTPDTLEDDQMFKWNVTVHEGRWVKGCSAGGCRNFPDTYWTNPQFRLVLLEADAKEKTCTVVVALMQKGRRVERCSGATLHNIGFAIYEVPKEMKGNQQQQLSKDFFLYNASTARSKSYVNIREVTERFCLKPGEYVIIPSTFDPHKESEFLLRVFSENRSTSKVIDAEIEAEPMQVDNVKKKIKPFEEEETEEEKQFRAIFQQIAGDDMEINANELRTVLNRVVAKHKELKTEGFSLESCRSMIALLDTDGTGHLNLQEFKHLWNKIKQWKLVFTRFDTDKSSTISSFEMRNALTEAGFQLNNQLYDIICMRYANEHMELDFDSYISCLVRLEGMFRAFRAFDKDGDGLIKLNVFEWLQLTMYA

— article PMC5033581
